Experimental data taken from article PMC11770318, “Isolation and characterization of a β-galactosidase from Lactobacillus helveticus for industrial processing” (JDS Communications, 2024).
No constants are given. Whether binding was seen depends on the method and setting. Some results given as binding are weak or reduced against the parent protein; the word gives no strength.

Protein sequences, listed by entry. Tags and fused reporters are not part of them.
UniProt Q7WTB4: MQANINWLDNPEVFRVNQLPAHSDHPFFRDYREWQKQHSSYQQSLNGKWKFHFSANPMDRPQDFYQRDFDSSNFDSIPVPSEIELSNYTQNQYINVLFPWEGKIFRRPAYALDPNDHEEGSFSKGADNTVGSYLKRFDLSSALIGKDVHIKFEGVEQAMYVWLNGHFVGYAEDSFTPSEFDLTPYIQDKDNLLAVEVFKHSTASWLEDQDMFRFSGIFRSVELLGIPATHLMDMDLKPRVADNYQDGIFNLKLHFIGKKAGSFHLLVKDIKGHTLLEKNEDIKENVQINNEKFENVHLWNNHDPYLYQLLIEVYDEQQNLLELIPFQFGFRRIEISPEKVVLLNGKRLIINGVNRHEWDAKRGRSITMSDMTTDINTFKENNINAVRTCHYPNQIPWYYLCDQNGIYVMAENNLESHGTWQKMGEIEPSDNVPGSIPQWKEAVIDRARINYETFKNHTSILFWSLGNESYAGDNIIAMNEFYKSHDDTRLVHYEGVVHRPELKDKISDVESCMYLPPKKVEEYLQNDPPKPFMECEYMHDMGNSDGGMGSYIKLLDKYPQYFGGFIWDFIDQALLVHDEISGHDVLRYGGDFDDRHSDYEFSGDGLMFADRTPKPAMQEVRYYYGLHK

Target: β-galactosidase large subunit from Lactobacillus helveticus OSU-PECh-4A (Lactobacillus helveticus OSU-PECh-4A (endogenous)) (UniProt Q7WTB4)
Experiment: native gel or EMSA; endogenous enzyme co-purified from the intracellular extract (100 kDa diafiltration, SEC in 50 mM Tris-HCl with 2 mM MgCl2, pH 7.0); native PAGE and SDS-PAGE on 4% to 10% gel, Coomassie stained; subunits identified by LC-MS (ESI-TRAP)

B1: β-galactosidase small subunit from Lactobacillus helveticus OSU-PECh-4A (enzyme, UniProt Q7WTB3 1-318)
chain: MDYTNNQLHIIYGDATLGVNGKDFQYIFSYERGGLESLKVHGKEWLYRVPTPTFWRATTDNDRGSGFNLKAAQWLGADMFTKCTDIHLKVDRHDFAELPIAPFNNKFSNHEYAKSAEISFTYQTLTTPATNAKIIYNIDDVGHIKVTMRYYGKKGLPPLPVIGIRLIMPTAATGFDYEGLSGETYPDRMAGAKEGKFHIDGLPVTEYLVPQENGMHMQTKKLTINRETTQNNVDRTNEKFSLSIQQAEKPFNFSCLPYTAEELENATHIEELPLVRRTVLVIAGAVRGVGGIDSWGTDVESAYHINPELDHEFSFILN
  binding: binds
